Values from PubChem BioAssay AID1508597 (Cure First, 2020)

- Assay: 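Knock-downs altering ovarian cancer cell survival with or without PARP inhibitor rucaparib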 (primary screen)
- Cell system: human ovarian carcinoma lines grown from tumours: OCI-P5x (papillary serous) and OCI-C5x (clear cell)
- Reagent: siRNA pool against human genes, 1.25 pmol siRNA per well
- Duration: 72 h or 96 h, depending on the cell culture
- Treatment: rucaparib 20 µM (about IC30) or vehicle, present until read-out
- Measured: 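ATP luminescence measured at 72 or 96 h according to the culture, then normalised and expressed as percent viability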
- Scale: viability, normalised: higher = more viable cells remaining
- Hit rule: 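a well counts as a hit if its normalised viability is under 80 percent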
- Meaning of the calls: active = viability under 80%; inactive = viability 80% or more
The whole screen tested about 2,100 reagents; below is a random part of them. 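Calls flag viability under 80% in either arm, not effects specific to rucaparib; the reference for percent is not stated.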 A number with no mark means an inactive call. Not stated in the record: the 100% reference.

RNASEL (ribonuclease L), rucaparib or vehicle Rucaparib, cell line OCI-C5x (clear cell), technical replicate 1 | viability, normalised (%): 49.4 (active)
RNASEL (ribonuclease L), rucaparib or vehicle Rucaparib, cell line OCI-C5x (clear cell), technical replicate 2 | viability, normalised (%): 32.3 (active)
RNASEL (ribonuclease L), rucaparib or vehicle Rucaparib, cell line OCI-C5x (clear cell), technical replicate 3 | viability, normalised (%): 70.5 (active)
RNASEL (ribonuclease L), rucaparib or vehicle Rucaparib, cell line OCI-P5x (serous), technical replicate 1 | viability, normalised (%): 91.3
RNASEL (ribonuclease L), rucaparib or vehicle Rucaparib, cell line OCI-P5x (serous), technical replicate 2 | viability, normalised (%): 85.4
RNASEL (ribonuclease L), rucaparib or vehicle Rucaparib, cell line OCI-P5x (serous), technical replicate 3 | viability, normalised (%): 72.9 (active)
RNASEL (ribonuclease L), rucaparib or vehicle Vehicle, cell line OCI-C5x (clear cell), technical replicate 1 | viability, normalised (%): 65 (active)
RNASEL (ribonuclease L), rucaparib or vehicle Vehicle, cell line OCI-C5x (clear cell), technical replicate 2 | viability, normalised (%): 47.2 (active)
RNASEL (ribonuclease L), rucaparib or vehicle Vehicle, cell line OCI-C5x (clear cell), technical replicate 3 | viability, normalised (%): 48.3 (active)
RNASEL (ribonuclease L), rucaparib or vehicle Vehicle, cell line OCI-P5x (serous), technical replicate 1 | viability, normalised (%): 81.1
RNASEL (ribonuclease L), rucaparib or vehicle Vehicle, cell line OCI-P5x (serous), technical replicate 2 | viability, normalised (%): 68.6 (active)
RNASEL (ribonuclease L), rucaparib or vehicle Vehicle, cell line OCI-P5x (serous), technical replicate 3 | viability, normalised (%): 65.2 (active)
CBX7 (chromobox 7), rucaparib or vehicle Rucaparib, cell line OCI-C5x (clear cell), technical replicate 1 | viability, normalised (%): 57 (active)
CBX7 (chromobox 7), rucaparib or vehicle Rucaparib, cell line OCI-C5x (clear cell), technical replicate 2 | viability, normalised (%): 45.1 (active)
CBX7 (chromobox 7), rucaparib or vehicle Rucaparib, cell line OCI-C5x (clear cell), technical replicate 3 | viability, normalised (%): 38.3 (active)
CBX7 (chromobox 7), rucaparib or vehicle Rucaparib, cell line OCI-P5x (serous), technical replicate 1 | viability, normalised (%): 61.2 (active)
CBX7 (chromobox 7), rucaparib or vehicle Rucaparib, cell line OCI-P5x (serous), technical replicate 2 | viability, normalised (%): 57.9 (active)
CBX7 (chromobox 7), rucaparib or vehicle Rucaparib, cell line OCI-P5x (serous), technical replicate 3 | viability, normalised (%): 48.1 (active)
CBX7 (chromobox 7), rucaparib or vehicle Vehicle, cell line OCI-C5x (clear cell), technical replicate 1 | viability, normalised (%): 29.2 (active)
CBX7 (chromobox 7), rucaparib or vehicle Vehicle, cell line OCI-C5x (clear cell), technical replicate 2 | viability, normalised (%): 20 (active)
CBX7 (chromobox 7), rucaparib or vehicle Vehicle, cell line OCI-C5x (clear cell), technical replicate 3 | viability, normalised (%): 29.8 (active)
CBX7 (chromobox 7), rucaparib or vehicle Vehicle, cell line OCI-P5x (serous), technical replicate 1 | viability, normalised (%): 48.5 (active)
CBX7 (chromobox 7), rucaparib or vehicle Vehicle, cell line OCI-P5x (serous), technical replicate 2 | viability, normalised (%): 45 (active)
CBX7 (chromobox 7), rucaparib or vehicle Vehicle, cell line OCI-P5x (serous), technical replicate 3 | viability, normalised (%): 98.4

Reformatted: 4 of the entries above.
{"gene": "RNASEL (ribonuclease L)", "rucaparib or vehicle": "Vehicle", "cell line": "OCI-C5x (clear cell)", "technical replicate": "1", "viability, normalised (%)": "65 (active)"}
{"gene": "RNASEL (ribonuclease L)", "rucaparib or vehicle": "Vehicle", "cell line": "OCI-C5x (clear cell)", "technical replicate": "2", "viability, normalised (%)": "47.2 (active)"}
{"gene": "RNASEL (ribonuclease L)", "rucaparib or vehicle": "Vehicle", "cell line": "OCI-C5x (clear cell)", "technical replicate": "3", "viability, normalised (%)": "48.3 (active)"}
{"gene": "RNASEL (ribonuclease L)", "rucaparib or vehicle": "Vehicle", "cell line": "OCI-P5x (serous)", "technical replicate": "1", "viability, normalised (%)": 81.1}
